Measured values reported in PMC4660060, “The molecular architecture of the Dam1 kinetochore complex is defined by cross-linking based structural modelling” (Nature Communications, 2015).
Results are given in words; binding and its absence hold for the method and conditions named. Some entries that bind do so weakly or less than the wild type.

What was measured:
[1] = molecular target: T1, Spc19p (yeast) (UniProt Q03954); assay: cross-linking; Dam1 complex (20 ug) on taxol-stabilised MTs in BRB80, 25 °C, DSS 2 min, quenched, pelleted at 130,000g; MS, Kojak, 1% FDR (458 unique distance restraints within the complex); contacts between subunits read from the integrative model (IMP) built on these cross-links; both purified
T1 sequence: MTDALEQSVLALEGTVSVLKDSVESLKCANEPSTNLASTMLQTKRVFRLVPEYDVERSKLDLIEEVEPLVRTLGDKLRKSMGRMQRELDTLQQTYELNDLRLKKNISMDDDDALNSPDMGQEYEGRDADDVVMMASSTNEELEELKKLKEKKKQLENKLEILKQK

[2] = molecular target: T2, Dad3p (yeast) (UniProt P69850); assay: as above
T2 sequence: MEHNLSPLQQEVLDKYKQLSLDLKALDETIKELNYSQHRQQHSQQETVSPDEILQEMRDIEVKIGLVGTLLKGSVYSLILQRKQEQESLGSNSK

[3] = molecular target: T3, Dad2p (yeast) (UniProt P36162); assay: as above
T3 sequence: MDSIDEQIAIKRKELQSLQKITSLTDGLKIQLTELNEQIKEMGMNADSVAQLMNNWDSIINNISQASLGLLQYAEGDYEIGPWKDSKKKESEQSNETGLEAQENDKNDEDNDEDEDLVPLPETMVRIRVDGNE

[4] = molecular target: T1, Spc19p (yeast); assay: cross-linking; free Dam1 complex without MTs: 40 ug in 500 mM NaCl, 50 mM phosphate pH 6.9, 0.48 mM DSS, 2 min, 25 °C; trypsin, MS, Kojak, 1% FDR (678 unique distance restraints); contacts between subunits read from the integrative model (IMP) built on these cross-links; both purified
[5] = molecular target: T2, Dad3p (yeast); assay: as above
[6] = molecular target: T3, Dad2p (yeast); assay: as above
[7] = molecular target: T4, Ask1p (yeast) (UniProt P35734); assay: cross-linking; Dam1 complex (20 ug) on taxol-stabilised MTs in BRB80, 25 °C, DSS 2 min, quenched, pelleted at 130,000g; MS, Kojak, 1% FDR (458 unique distance restraints within the complex); contacts between subunits read from the integrative model (IMP) built on these cross-links; both purified
T4 sequence: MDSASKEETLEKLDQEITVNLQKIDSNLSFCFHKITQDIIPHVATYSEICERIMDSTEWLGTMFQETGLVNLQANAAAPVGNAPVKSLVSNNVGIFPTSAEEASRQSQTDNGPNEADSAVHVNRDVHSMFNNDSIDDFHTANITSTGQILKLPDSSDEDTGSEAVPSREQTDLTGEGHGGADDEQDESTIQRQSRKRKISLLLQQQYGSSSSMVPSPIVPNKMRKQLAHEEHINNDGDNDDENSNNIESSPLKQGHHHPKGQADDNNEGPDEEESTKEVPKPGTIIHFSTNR

[8] = molecular target: T5, Duo1p (yeast) (UniProt P53168); assay: as above
T5 sequence: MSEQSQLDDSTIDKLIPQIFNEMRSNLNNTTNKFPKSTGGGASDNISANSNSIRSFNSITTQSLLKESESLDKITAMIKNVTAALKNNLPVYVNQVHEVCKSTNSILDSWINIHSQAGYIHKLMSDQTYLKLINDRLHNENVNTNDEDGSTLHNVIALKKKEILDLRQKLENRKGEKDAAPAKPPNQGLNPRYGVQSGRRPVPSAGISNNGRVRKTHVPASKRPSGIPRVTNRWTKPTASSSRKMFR

[9] = molecular target: T4, Ask1p (yeast); assay: cross-linking; free Dam1 complex without MTs: 40 ug in 500 mM NaCl, 50 mM phosphate pH 6.9, 0.48 mM DSS, 2 min, 25 °C; trypsin, MS, Kojak, 1% FDR (678 unique distance restraints); contacts between subunits read from the integrative model (IMP) built on these cross-links; both purified
[10] = molecular target: T5, Duo1p (yeast); assay: as above

Measured: binding

B1: Spc34p (protein, UniProt P36131 1-295)
chain: MGESLDRCIDDINRAVDSMSTLYFKPPGIFHNAILQGASNKASIRKDITRLIKDCNHDEAYLLFKVNPEKQSVSRRDGKEGVFDYVIKRDTDMKRNRRLGRPGEKPIIHVPKEVYLNKDRLDLNNKRRRTATTSGGGLNGFIFDTDLIGSSVISNSSSGTFKALSAVFKDDPQIQRLLYALENGSVLMEEESNNQRRKTIFVEDFPTDLILKVMAEVTDLWPLTEFKQDYDQLYHNYEQLSSKLRFIKKEVLLQDDRLKTMSQYHPSSSHDVAKIIRKEKDEIRRLEMEIANLQE
binds: [1] | [2] | [3] | [4] | [5] | [6]

B2: Duo1p (protein, UniProt P53168 1-247)
chain: MSEQSQLDDSTIDKLIPQIFNEMRSNLNNTTNKFPKSTGGGASDNISANSNSIRSFNSITTQSLLKESESLDKITAMIKNVTAALKNNLPVYVNQVHEVCKSTNSILDSWINIHSQAGYIHKLMSDQTYLKLINDRLHNENVNTNDEDGSTLHNVIALKKKEILDLRQKLENRKGEKDAAPAKPPNQGLNPRYGVQSGRRPVPSAGISNNGRVRKTHVPASKRPSGIPRVTNRWTKPTASSSRKMFR
binds: [7] | [1]

B3: Dam1p (protein, UniProt P53267 1-343)
chain: MSEDKAKLGTTRSATEYRLSIGSAPTSRRSSMGESSSLMKFADQEGLTSSVGEYNENTIQQLLLPKIRELSDSIITLDSNFTRLNFIHESLADLNESLGSLLYGIMSNSWCVEFSQAPHDIQDDLIAIKQLKSLEDEKNNLVMELSNMERGIKRKKDEQGENDLAKASQNKQFNQPLFPSSQVRKYRSYDNRDKRKPSKIGNNLQVENEEDYEDDTSSEASFVLNPTNIGMSKSSQGHVTKTTRLNNNTNSKLRRKSILHTIRNSIASGADLPIENDNVVNLGDLHPNNRISLGSGAARVVNGPVTKNRNSMFSGRAERKPTESRHSVAKKTEKKINTRPPFR
binds: [7] | [8] | [9] | [10]
